According to paper PMC8753592, “Long-acting capsid inhibitor protects macaques from repeat SHIV challenges” (Nature, 2021):
Several values for one entry are separate records, joined by “and”; a condition that tells them apart may be missing. Identical values can stand only once. Further values from the same series stand in other lists.

Tested on: SHIV-SF162P3
Assay: Repeated escalating-dose rectal SHIV challenge study (plasma viraemia by gag RT-qPCR)
Type: in vivo, rhesus macaques of Indian origin
Method: For the challenge study, 24 outbred rhesus macaques of Indian origin were assigned to the three study groups with even sex and weight distributions. All animals were housed at Alpha Genesis (Yemassee, SC), and all procedures were conducted in compliance with all relevant local, state and federal regulations and were approved by the Alpha Genesis IACUC. […] The injection sites were monitored daily by veterinary staff for 3 days. Beginning in week 1, animals in all three groups were challenged by the intrarectal route with 1 ml of RPMI containing the specified dilution of a 3.62 × 10^3 TCID50 SHIV-SF162P3 stock. At each respective time point, the challenges were performed on the same day, using the same virus stock and inoculation method across the three groups. Whole blood was collected and processed into plasma and PBMCs as necessary to assess routine haematology, clinical chemistry, viral load and serology as well as for bioanalysis of drug levels. The animals were considered to be protected if they remained SHIV negative by plasma PCR assay and seronegative by enzyme immunoassay throughout the 15-week challenge phase and the 9-week follow-up.
RNA was extracted from rhesus macaque plasma using a QIAcube high-throughput instrument and an IndiSpin QIAcube HT Pathogen kit (Qiagen). RNA standards using the SIV gag sequence were generated by AmpliCap-Max T7 High-Yield Message Maker kit (Cell Script) and were purified using an RNA Clean and Concentrator kit (Zymo Research). Log dilutions of the RNA were included with each RT–qPCR assay. Reverse transcription of standards and samples was performed using a Superscript III VILO kit (Invitrogen). qPCR was performed using forward primer 5′-[…]-3′, reverse primer 5′-[…]-3′ and fluorescently labelled primer 5′-[…]-3′ on a Quantstudio 6 Flex system (Applied Biosystems). The assay LOD was 200 copies gag per ml.
Protection against acquired infection was analysed using Cox proportional hazard regression models based on the exact partial likelihood for discrete time expressed in weeks, which explicitly accounts for the time-varying viral challenge dose in the model. The hazard ratios with 95% confidence intervals for per-exposure relative reductions in acquisition risk were calculated for the GS-CA1-treated groups, and the results were compared with those for the vehicle-treated control group. Comparisons were considered statistically significant at a two-sided alpha level of 0.05 (P < 0.05). Statistical analyses were performed using GraphPad Prism version 8.1.2, SAS version 9.4 and R Studio software version 4.0.5.

Compound: CC(C)(C#Cc1ccc(-c2ccc(Cl)c3c(NS(=O)(=O)C4CC4)nn(CC(F)F)c23)c([C@H](Cc2cc(F)cc(F)c2)NC(=O)Cn2nc(C(F)F)c3c2C(F)(F)[C@@H]2C[C@H]32)n1)S(C)(=O)=O [GS-CA1]
- Plasma SHIV viral load (GS-CA1 150mg/kg, Week 23, individual animals, 150 mg/kg): 200 gag RNA copies per ml and 1150 gag RNA copies per ml and 1806 gag RNA copies per ml and 218 gag RNA copies per ml
- Plasma SHIV viral load (GS-CA1 150mg/kg, Week 24, individual animals, 150 mg/kg): 200 gag RNA copies per ml and 724 gag RNA copies per ml and 1367 gag RNA copies per ml
- Plasma SHIV viral load (GS-CA1 300mg/kg group, Week 21, individual animals, 300 mg/kg): 61496 gag RNA copies per ml
- Plasma SHIV viral load (GS-CA1 300mg/kg group, Week 22, individual animals, 300 mg/kg): 30155 gag RNA copies per ml
- Plasma SHIV viral load (GS-CA1 300mg/kg group, Week 23, individual animals, 300 mg/kg): 50155 gag RNA copies per ml
- Plasma SHIV viral load (GS-CA1 300mg/kg group, Week 24, individual animals, 300 mg/kg): 19362 gag RNA copies per ml
- Plasma SHIV viral load (GS-CA1 300mg/kg, Week 1, individual animals): 200 gag RNA copies per ml
- Plasma SHIV viral load (GS-CA1 300mg/kg, Week 2, individual animals): 200 gag RNA copies per ml
- Plasma SHIV viral load (GS-CA1 300mg/kg, Week 3, individual animals): 200 gag RNA copies per ml
- Plasma SHIV viral load (GS-CA1 300mg/kg, Week 4, individual animals): 200 gag RNA copies per ml
- Plasma SHIV viral load (GS-CA1 300mg/kg, Week 5, individual animals): 200 gag RNA copies per ml
- Plasma SHIV viral load (GS-CA1 300mg/kg, Week 6, individual animals): 200 gag RNA copies per ml
- Plasma SHIV viral load (GS-CA1 300mg/kg, Week 7, individual animals): 200 gag RNA copies per ml
- Plasma SHIV viral load (GS-CA1 300mg/kg, Week 8, individual animals): 200 gag RNA copies per ml
- Plasma SHIV viral load (GS-CA1 300mg/kg, Week 9, individual animals): 200 gag RNA copies per ml
- Plasma SHIV viral load (GS-CA1 300mg/kg, Week 10, individual animals): 200 gag RNA copies per ml
- Plasma SHIV viral load (GS-CA1 300mg/kg, Week 11, individual animals): 200 gag RNA copies per ml
- Plasma SHIV viral load (GS-CA1 300mg/kg, Week 12, individual animals): 200 gag RNA copies per ml
- Plasma SHIV viral load (GS-CA1 300mg/kg, Week 13, individual animals): 200 gag RNA copies per ml
- Plasma SHIV viral load (GS-CA1 300mg/kg, Week 14, individual animals): 200 gag RNA copies per ml
- Plasma SHIV viral load (GS-CA1 300mg/kg, Week 15, individual animals): 200 gag RNA copies per ml
- Plasma SHIV viral load (GS-CA1 300mg/kg, Week 16, individual animals): 200 gag RNA copies per ml
- Plasma SHIV viral load (GS-CA1 300mg/kg, Week 17, individual animals, 300 mg/kg): 9063 gag RNA copies per ml and 13193 gag RNA copies per ml and 200 gag RNA copies per ml and 13143 gag RNA copies per ml
- Plasma SHIV viral load (GS-CA1 300mg/kg, Week 18, individual animals, 300 mg/kg): 200 gag RNA copies per ml and 6116 gag RNA copies per ml and 1633235 gag RNA copies per ml
- Plasma SHIV viral load (GS-CA1 300mg/kg, Week 19, individual animals, 300 mg/kg): 200 gag RNA copies per ml and 123639 gag RNA copies per ml
- Plasma SHIV viral load (GS-CA1 300mg/kg, Week 20, individual animals, 300 mg/kg): 200 gag RNA copies per ml and 17958 gag RNA copies per ml
- Plasma SHIV viral load (GS-CA1 300mg/kg, Week 21, individual animals, 300 mg/kg): 200 gag RNA copies per ml and 61496 gag RNA copies per ml
- Plasma SHIV viral load (GS-CA1 300mg/kg, Week 22, individual animals, 300 mg/kg): 200 gag RNA copies per ml and 30155 gag RNA copies per ml
- Plasma SHIV viral load (GS-CA1 300mg/kg, Week 23, individual animals, 300 mg/kg): 200 gag RNA copies per ml and 50155 gag RNA copies per ml
- Plasma SHIV viral load (GS-CA1 300mg/kg, Week 24, individual animals, 300 mg/kg): 200 gag RNA copies per ml and 19362 gag RNA copies per ml
